For the series the following is noted: buffer; pH 7.4; 6.0 h; 150.0 µM.

As usually defined, the solubility (kinetic) is solubility judged after dilution from a stock solution rather than from solid.

On to `COc1ccc2[nH]c3c(C)c4ccncc4c(C)c3c2c1`, for which the solubility (kinetic) is under 1 µg/mL. Under `CCNC(=O)C[C@@H]1N=C(c2ccc(Cl)cc2)c2cc(OC)ccc2-n2c(C)nnc21` stands over 63 µg/mL.

The values are drawn from PubChem BioAssay AID1645848.
